According to US20110110852A1:
These are yes or no findings as the source states them, for the method shown. Binding seen in cells or lysates may run through a third protein. Some results given as binding are weak or reduced against the parent protein; the word gives no strength.

The chains behind the UniProt entries cited, without tags or fusion partners. Residues count along the entry.
UniProt O14763, residues 56-440: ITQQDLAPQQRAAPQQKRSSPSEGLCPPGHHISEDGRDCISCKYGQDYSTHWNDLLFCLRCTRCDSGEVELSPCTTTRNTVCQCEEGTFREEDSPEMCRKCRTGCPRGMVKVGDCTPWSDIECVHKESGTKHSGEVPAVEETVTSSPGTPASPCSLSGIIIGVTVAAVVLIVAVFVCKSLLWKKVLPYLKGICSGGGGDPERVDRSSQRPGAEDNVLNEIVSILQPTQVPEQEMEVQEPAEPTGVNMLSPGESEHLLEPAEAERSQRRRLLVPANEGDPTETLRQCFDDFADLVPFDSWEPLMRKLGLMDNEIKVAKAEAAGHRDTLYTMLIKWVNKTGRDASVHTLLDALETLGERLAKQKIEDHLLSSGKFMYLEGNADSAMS
UniProt Q13158: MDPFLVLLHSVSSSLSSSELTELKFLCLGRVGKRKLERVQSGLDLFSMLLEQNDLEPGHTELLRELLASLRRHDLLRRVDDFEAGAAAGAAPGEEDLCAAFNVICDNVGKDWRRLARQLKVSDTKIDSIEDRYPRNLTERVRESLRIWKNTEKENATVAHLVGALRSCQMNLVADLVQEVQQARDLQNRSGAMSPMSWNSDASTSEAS

Target: DR5 on cells (UniProt O14763)
Assay: DISC analysis on BJAB cells, co-purification with antibody-DR5 complexes, Western blot

binding: binds
Substance: FADD (from UniProt Q13158 1-208)
